No constants are given. Whether binding was seen depends on the method and setting. Binding seen in cells or lysates may run through a third protein. Some binding calls cover weakened binding; strength is not graded here. Tags and fused reporters may be left off the sequences shown.
How the values were obtained:
[1] = target: GFP-tagged Heat shock protein 90 (Hsp90) (C. albicans) (UniProt P46598); assay: condition: only cells grown on YPD-K medium (with glucose); co-IP; cells grown on YPD-K medium (2% glucose); lysate in 50 mM Na-HEPES pH 7.5, 450 mM NaOAc, 0.25% NP-40; anti-GFP antibody Sepharose, 4°C, 3 h; immunoblot with anti-Myc
[2] = target: GFP-tagged Heat shock protein 90 (Hsp90) (C. albicans) (UniProt P46598); assay: co-IP; cells grown on YP-K medium (no glucose); lysate in 50 mM Na-HEPES pH 7.5, 450 mM NaOAc, 0.25% NP-40; anti-GFP antibody Sepharose, 4°C, 3 h; immunoblot with anti-Myc

Amino acid sequences for entries named in this document (tags omitted).
UniProt P46598: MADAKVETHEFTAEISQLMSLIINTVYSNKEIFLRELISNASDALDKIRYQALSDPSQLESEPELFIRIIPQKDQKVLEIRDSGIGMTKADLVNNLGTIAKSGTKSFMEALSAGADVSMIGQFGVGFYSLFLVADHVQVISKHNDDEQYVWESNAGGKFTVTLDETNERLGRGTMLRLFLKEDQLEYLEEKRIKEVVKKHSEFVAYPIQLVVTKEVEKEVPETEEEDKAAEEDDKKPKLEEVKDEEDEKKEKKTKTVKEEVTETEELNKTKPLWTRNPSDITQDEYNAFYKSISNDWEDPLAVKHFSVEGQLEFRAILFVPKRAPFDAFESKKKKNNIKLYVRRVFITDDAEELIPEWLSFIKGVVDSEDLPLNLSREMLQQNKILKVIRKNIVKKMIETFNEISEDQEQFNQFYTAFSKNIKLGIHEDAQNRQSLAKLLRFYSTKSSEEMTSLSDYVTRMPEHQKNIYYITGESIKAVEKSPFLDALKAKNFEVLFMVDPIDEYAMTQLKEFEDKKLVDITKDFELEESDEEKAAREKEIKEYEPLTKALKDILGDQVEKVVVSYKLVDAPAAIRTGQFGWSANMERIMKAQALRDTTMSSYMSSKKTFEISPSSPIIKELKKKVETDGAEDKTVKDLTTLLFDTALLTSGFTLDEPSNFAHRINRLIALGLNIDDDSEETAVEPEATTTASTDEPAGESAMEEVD

- binding [1]: no binding
- binding [2]: binds
B1: 13x Myc-tagged Cell Wall Transcription factor 1 (Cwt1) (protein, UniProt Q59M50 1-578)
chain: MSTMSTQKANSSTPGETDSSSSLPPPEITEPTYKKPEKSTKRRKKKLEIACVYCRRSHMICDESRPCQRCIKRGIAHLCYDEPSNSRQRKKAAALRKTQSEGAPMVTSPITLPLTGSTGNQSPLPLPPLQASQSDIRSAPKTENSLQFSQPALHQQQMQENPQGASQSVHTNNTHIYSSQNQQQQPQHQQQLQQQQPQPQPQSRLIKNSVLSQTLPYNQQPFFYSEHANSEFSSLNDFLSMIDDPELVNGALNDDTDGLLNFGVGNNNNSGGSNSNINNTHNNNNNGFSISGGNSTTNLNAVLAYSPNSNLFPPTFGNEADSTQIQSQQQQPELTQQPPALNPVKVEPQAEKTEQQPVISDSARDKFFLTAADPTTEISPEERLKQVIKAKLEAGLLQPYNYAKGYARLQRYMDNYMNISSRQRILKPLSIFRPAFRAIARTLKDVDLVLVEESFERMLLDYDRVFTAMAIPACLWRRTGEIYRGNKEFASLVGVTTDDLKDGKLAIYELMSEESAVNFWEKYGAIAFDKGQKAVLTSCNLRTRDGIKRKSCCFSFTIRRDRYNIPSCIVGNFIPIDP

Source: article PMC6415874
